Earlier results, collected in patent US4997835A, “Substituted 2-acylpyridine-α-(N)-hetarlyhydrazones and medicaments containing the same” (priority 1987, dated 1991).
At least one compound was matched to its structure with a doubt left.

System: lymphatic leukaemia P388
Conditions: C. Pellerano et al, Il Farmaco 1985; cited from earlier work

Compound: Cc1cccc(C=NNc2ccccn2)n1 [PH 22-10, 6-methyl pyridine-2-aldehyde-pyridylhydrazone]
- in vivo treatment of lymphatic leukaemia P388: ineffective
